{"source": "patent US8324185B2", "about": "“Composition for the treatment of obesity and hyperlipidemia” (Nucitec, S.A. DF C.V., priority 2004, dated 2012)", "key": {"[1]": {"settings": "dietary fat; listed as tetrahydrolipstatin; cited from earlier work"}, "[2]": {"experiment": "break-down of the bile-salt fat emulsion by basic peptides", "settings": "concentrations as low as 10 μg/mL"}}, "note": "Some results were stated once for a whole list of compounds, not compound by compound."}
{"compound": "CCCCCCCCCCC[C@@H](C[C@@H]1OC(=O)[C@H]1CCCCCC)OC(=O)[C@H](CC(C)C)NC=O", "note": "[orlistat]", "values": [{"measurement": "reduction in fat absorption from the diet", "setting": "[1]", "value": "up to 30%"}]}
{"compound": "protamine", "values": [{"measurement": "break-down of the emulsion", "setting": "[2]", "value": "up to 90%"}]}
